# Results: patent publication US8283349B2, “Fungicide N-(3-phenylpropyl) carboxamide derivatives” (Bayer Cropscience AG, priority 2007, dated 2012)
# Some results were stated once for a whole list of compounds, not compound by compound.
# Legend:
# [1] = tested on: Mycosphaerella graminicola; assay: Cell test on Mycosphaerella graminicola; type: cell-based; details: 6 ppm in liquid bactopeptone medium, 4 days at 20° C., vs control
# Method: The growth of Mycosphaerella graminicola is performed in a bactopeptone based liquid medium at 20° C. under shaking (120 rpm) during 72 hours. The bactopeptone based medium is prepared by mixing 14.6 grams of D-glucose, 1.4 grams of Yeast extract and 7.1 g of bacteriological peptone (OXOID ref. LP0037) in 1 liter of demineralized water. The medium is sterilized by autoclave 15 minutes at 121° C. After 72 hours, pre-culture of Mycosphaerella graminicola is recovered and the optic density (OD) at 620 nm is adjusted with the bactopeptone based medium at 0.5. The compounds are dissolved in DMSO and added to sterile liquid bactopeptone medium at a concentration of 6 ppm. The medium is inoculated with the pre-culture of Mycosphaerella graminicola by a dilution of 10 times of the pre-culture. The efficacy of the compounds is assessed by OD measurement at 620 nm after 4 days at 20° C. in comparison with a control.
# Sphaerotheca fuliginea = assay: In vivo test on Sphaerotheca fuliginea (powdery mildew); details: 500 ppm, preventive spray on gherkin plants, grading 21 days after contamination, vs control plants
# Pyrenophora teres = assay: In vivo test on Pyrenophora teres (barley net blotch); details: 500 ppm, preventive spray on barley plants, grading 12 days after contamination, vs control plants
# Alternaria brassicae = assay: In vivo test on Alternaria brassicae (leaf spot of crucifers); details: 500 ppm, preventive spray on radish plants, grading 6 to 7 days after contamination, vs control plants
Structure (SMILES),protection (efficacy by OD at 620 nm) [1],protection (% of efficacy) (Sphaerotheca fuliginea),protection (Pyrenophora teres),protection (Alternaria brassicae)
O=C(NCCCc1ccc(Cl)cc1Cl)c1sccc1C(F)(F)F [Compound A1],at least 70%,,,
"O=C(NCCCc1ccc(Cl)cc1Cl)c1sccc1I [Compound A2, N-[3-(2,4-dichlorophenyl)propyl]-3-iodothiophene-2-carboxamide]",at least 70%,at least 70%,,
O=C(NCCCc1ccc(Cl)cc1Cl)C1=C(C(F)(F)F)OCCS1 [Compound B1],at least 70%,,at least 70%,
Cc1nc(C(F)F)c(C(=O)NCCCc2ccc(Cl)cc2Cl)s1 [Compound C1],at least 70%,at least 70%,at least 70%,at least 70%
O=C(NCCCc1ccc(Cl)cc1Cl)c1cccnc1Cl [Compound D1],at least 70%,,,at least 70%
Cc1nn(C)c(F)c1C(=O)NCCCc1ccc(Cl)cc1Cl [Compound E1],at least 70%,,,at least 70%
Cn1nc(C(F)(F)F)c(C(=O)NCCCc2ccc(Cl)cc2Cl)c1F [Compound E2],at least 70%,at least 70%,,
Cn1cc(C(=O)NCCCc2ccc(Cl)cc2Cl)c(C(F)(F)F)n1 [Compound E5],at least 70%,at least 70%,at least 70%,at least 70%
Cn1cc(C(=O)NCCCc2ccc(Cl)cc2Cl)c(C(F)F)n1 [Compound E6],at least 70%,at least 70%,at least 70%,at least 70%
Cn1cc(C(=O)NCCCc2ccc(Cl)cc2Cl)c(I)n1 [Compound E8],,at least 70%,at least 70%,
Cc1nn(C)c(Cl)c1C(=O)NCCCc1ccc(Cl)cc1Cl [Compound E9],,,at least 70%,at least 70%
O=C(NCCCc1ccc(Cl)cc1Cl)c1ncccc1C(F)(F)F [Compound F1],at least 70%,at least 70%,at least 70%,
